# The list shows only some results of the screen, not a fair sample: it gathers some chemical classes. Not every dose and run of a compound is shown. T/C is the treated group as % of the vehicle group. Some doses have a count of surviving animals in place of a T/C: the source holds a T/C of zero for them, seemingly a mark for toxic or unscored doses. Some doses without a T/C left all or most animals alive at the check, yet need not have been tolerated: survival well below the control is almost never listed, so the zero probably covers shortened survival too. Counts of survivors are from the toxicity check (mostly the fifth day) where no day follows; animals may have died later. Schedules are NCI's codes, taken here to give the interval after Q, in days (D) or hours (H), and the number of doses after X. Where survival is the endpoint, this PubChem deposit counts one and a half times the control or more as active, and values a quarter to a half above the control carry no call in these data; other NCI protocols may use other cut-offs. Some T/C values are marked as having no survivor count here; that says nothing about deaths at the dose. Some doses were run more than once; the results are listed from low to high. Some complexes appear as separate parts, the way the source draws them; their charges need not add up. Some T/C values are followed by the survivors on the day toxicity was checked, most often the fifth; without a count or a note in brackets, all were alive then.
# Tested on: L1210 leukemia ip in BDF1 mice, survival T/C
# Assay: NCI In Vivo Anticancer Drug Screen. Data for tumor model L1210 Leukemia (intraperitoneal) in B6D2F1 (BDF1) mice
# Settings: T/C endpoint: mean survival time, higher T/C = longer survival
# [1] = dose: 100.0 mg/kg/injection, schedule: Q01DX001 (ip), vehicle: carboxymethylcellulose (CMC)
# [2] = dose: 200.0 mg/kg/injection, schedule: Q01DX001 (ip), vehicle: carboxymethylcellulose (CMC)
# [3] = dose: 400.0 mg/kg/injection, schedule: Q01DX001 (ip), vehicle: carboxymethylcellulose (CMC)
# [4] = dose: 100.0 mg/kg/injection, schedule: Q01DX009 (ip), vehicle: Klucel (hydroxypropylcellulose) (HPC)
# [5] = dose: 200.0 mg/kg/injection, schedule: Q01DX009 (ip), vehicle: Klucel (hydroxypropylcellulose) (HPC)
# [6] = dose: 400.0 mg/kg/injection, schedule: Q01DX009 (ip), vehicle: Klucel (hydroxypropylcellulose) (HPC)
# [7] = dose: 75.0 mg/kg/injection, schedule: Q01DX001 (ip), vehicle: other
# [8] = dose: 150.0 mg/kg/injection, schedule: Q01DX001 (ip), vehicle: other
# [9] = dose: 50.0 mg/kg/injection, schedule: Q01DX009 (ip), vehicle: Klucel (hydroxypropylcellulose) (HPC)
# [10] = dose: 100.0 mg/kg/injection, schedule: Q04DX003 (ip), vehicle: Klucel (hydroxypropylcellulose) (HPC)
# [11] = dose: 200.0 mg/kg/injection, schedule: Q04DX003 (ip), vehicle: Klucel (hydroxypropylcellulose) (HPC)
# [12] = dose: 400.0 mg/kg/injection, schedule: Q04DX003 (ip), vehicle: Klucel (hydroxypropylcellulose) (HPC)
# [13] = dose: 100.0 mg/kg/injection, schedule: Q01DX001 (ip), vehicle: saline
# [14] = dose: 200.0 mg/kg/injection, schedule: Q01DX001 (ip), vehicle: saline
# [15] = dose: 400.0 mg/kg/injection, schedule: Q01DX001 (ip), vehicle: saline
# [16] = dose: 50.0 mg/kg/injection, schedule: Q01DX009 (ip), vehicle: saline
# [17] = dose: 100.0 mg/kg/injection, schedule: Q01DX009 (ip), vehicle: saline
# [18] = dose: 100.0 mg/kg/injection, schedule: Q04DX003 (ip), vehicle: saline
# [19] = dose: 200.0 mg/kg/injection, schedule: Q04DX003 (ip), vehicle: saline
# [20] = dose: 400.0 mg/kg/injection, schedule: Q04DX003 (ip), vehicle: saline
smiles,measurement,setting,value
O=[N+]([O-])c1cc(N=[N+]([O-])c2cc([N+](=O)[O-])cc([N+](=O)[O-])c2)cc([N+](=O)[O-])c1,T/C,"dose: 44.4 mg/kg/injection, schedule: Q01DX001 (ip), vehicle: carboxymethylcellulose (CMC)",91 [survivor count not shown] and 109 % of control [survivor count not shown]
same,T/C,"dose: 66.7 mg/kg/injection, schedule: Q01DX001 (ip), vehicle: carboxymethylcellulose (CMC)",90 [survivor count not shown] and 93 % of control [survivor count not shown]
same,T/C,[1],"91 [survivor count not shown], 93 [survivor count not shown], 169 % of control [survivor count not shown]"
same,T/C,"dose: 150.0 mg/kg/injection, schedule: Q01DX001 (ip), vehicle: carboxymethylcellulose (CMC)",91 [survivor count not shown] and 98 % of control [survivor count not shown]
same,T/C,[2],96 % of control [survivor count not shown]
same,T/C,[3],91 % of control [survivor count not shown]
CCCCOP(=S)(S)OCCCC.[Hg],T/C,[4],94 % of control
same,T/C,[5],92 % of control
same,survivor count,[6],4 of 6
O=C(O)c1ccccc1C(=O)c1ccc2ccccc2c1.O=C1c2cc([N+](=O)[O-])ccc2-c2c1cc([N+](=O)[O-])cc2[N+](=O)[O-],T/C,"dose: 100.0 mg/kg/injection, schedule: Q01DX001 (ip), vehicle: Klucel (hydroxypropylcellulose) (HPC)",106 % of control
same,T/C,"dose: 200.0 mg/kg/injection, schedule: Q01DX001 (ip), vehicle: Klucel (hydroxypropylcellulose) (HPC)",106 % of control
same,T/C,"dose: 400.0 mg/kg/injection, schedule: Q01DX001 (ip), vehicle: Klucel (hydroxypropylcellulose) (HPC)",115 % of control
CCN(CC(C)O)C(CC(C)C)CC(C)C (stereo unspecified),T/C,[7],98 % of control
same,T/C,[8],102 % of control
same,T/C,"dose: 300.0 mg/kg/injection, schedule: Q01DX001 (ip), vehicle: other",101 % of control
O=C(Nc1ccc(Br)cc1)NP(=O)(Nc1ccccc1)Nc1ccccc1,T/C,"dose: 50.0 mg/kg/injection, schedule: Q01DX001 (ip), vehicle: other",101 % of control
same,T/C,"dose: 100.0 mg/kg/injection, schedule: Q01DX001 (ip), vehicle: other",87 % of control
same,T/C,"dose: 200.0 mg/kg/injection, schedule: Q01DX001 (ip), vehicle: other",87 % of control
same,T/C,"dose: 400.0 mg/kg/injection, schedule: Q01DX001 (ip), vehicle: other",87 % of control
CC(C)OP(=S)(Cl)OC(C)C,T/C,"dose: 20.0 mg/kg/injection, schedule: Q04DX003 (ip), vehicle: Klucel (hydroxypropylcellulose) (HPC)",100 % of control
same,T/C,"dose: 25.0 mg/kg/injection, schedule: Q01DX009 (ip), vehicle: Klucel (hydroxypropylcellulose) (HPC)",109 % of control
same,T/C,"dose: 40.0 mg/kg/injection, schedule: Q04DX003 (ip), vehicle: Klucel (hydroxypropylcellulose) (HPC)",102 % of control
same,T/C,[9],101 % of control
same,T/C,"dose: 80.0 mg/kg/injection, schedule: Q04DX003 (ip), vehicle: Klucel (hydroxypropylcellulose) (HPC)",106 % of control [5 of 6 alive]
same,T/C,[4],92 % of control
same,T/C,[10],96 % of control
same,survivor count,[11],3 of 6
same,survivor count,[12],0 of 6
Cc1c(C)n(C)c2ccc(C(C)(C)c3ccccc3)cc12.O=C(c1cc([N+](=O)[O-])cc([N+](=O)[O-])c1)c1cc([N+](=O)[O-])cc([N+](=O)[O-])c1,T/C,[13],100 % of control
same,T/C,[14],97 % of control
same,T/C,[15],92 % of control
O=C(O)C(O)(c1ccccc1)c1ccccc1.c1ccc(C(c2ccccc2)n2cc[n+](C(c3ccccc3)c3ccccc3)c2)cc1,T/C,"dose: 25.0 mg/kg/injection, schedule: Q04DX002 (ip), vehicle: gum acacia",107 % of control [survivor count not shown]
same,T/C,"dose: 50.0 mg/kg/injection, schedule: Q04DX002 (ip), vehicle: gum acacia",88 % of control [survivor count not shown]
same,T/C,"dose: 100.0 mg/kg/injection, schedule: Q04DX002 (ip), vehicle: gum acacia",105 % of control [survivor count not shown]
CCC1([N+](=O)[O-])COP(=O)(Cl)OC1 (stereo unspecified),T/C,"dose: 50.0 mg/kg/injection, schedule: Q01DX001 (ip), vehicle: carboxymethylcellulose (CMC)",111 % of control
same,T/C,[1],98 % of control
same,T/C,[2],109 % of control
same,survivor count,[3],0 of 4
CCC[As](=O)(O)O,T/C,"dose: 25.0 mg/kg/injection, schedule: Q01DX009 (ip), vehicle: saline",95 % of control
same,survivor count,[16],3 of 6
same,survivor count,[17],0 of 6
same,T/C,[18],94 % of control [4 of 6 alive]
same,survivor count,[19],2 of 6
same,survivor count,[20],1 of 6
CCN(CC)CCOC(=O)C(O)(c1ccc(OC)cc1)c1ccc(OC)cc1,T/C,[7],101 % of control
same,T/C,[8],92 % of control
C1CCC2(CC1)OOC1(CCCCC1)OO2,T/C,"dose: 50.0 mg/kg/injection, schedule: Q01DX009 (ip), vehicle: saline with Tween-80",91 % of control [survivor count not shown]
same,T/C,"dose: 100.0 mg/kg/injection, schedule: Q01DX009 (ip), vehicle: saline with Tween-80",98 % of control [survivor count not shown]
same,T/C,"dose: 200.0 mg/kg/injection, schedule: Q01DX009 (ip), vehicle: saline with Tween-80",91 % of control [survivor count not shown]
C1CN1.NC(=O)CC(N)C(=O)O (stereo unspecified),T/C,[18],104 % of control
same,T/C,[19],112 % of control
same,survivor count,[20],0 of 6
O=P(Cl)(CCl)NC12CC3CC(CC(C3)C1)C2 (stereo unspecified),T/C,[9],93 % of control [5 of 6 alive]
same,survivor count,[4],0 of 6
same,T/C,[10],100 % of control
same,survivor count,[5],1 of 6
same,T/C,[11],93 % of control
same,survivor count,[12],2 of 6
CCP1(=O)Nc2ccccc2N1,T/C,"dose: 100.0 mg/kg/injection, schedule: Q04DX003 (ip), vehicle: saline with Tween-80",94 % of control [survivor count not shown]
same,T/C,"dose: 200.0 mg/kg/injection, schedule: Q04DX003 (ip), vehicle: saline with Tween-80",100 % of control [survivor count not shown]
same,T/C,"dose: 400.0 mg/kg/injection, schedule: Q04DX003 (ip), vehicle: saline with Tween-80",104 % of control [survivor count not shown]
NNC(=O)NP(=O)(NC(=O)NN)NC(=O)NN,T/C,"dose: 50.0 mg/kg/injection, schedule: Q01DX001 (ip), vehicle: saline",97 % of control
same,T/C,[13],92 % of control
same,T/C,[14],97 % of control
same,T/C,[15],100 % of control
CN(C)CCOC(=O)C(O)(Cc1ccccc1)c1ccccc1 (stereo unspecified),T/C,[16],105 % of control
same,T/C,[17],105 % of control
same,T/C,"dose: 200.0 mg/kg/injection, schedule: Q01DX009 (ip), vehicle: saline",94 % of control
Cc1cc(N(CCCl)CCCl)ccc1C1OCCO1.[C-]#[O+].[C-]#[O+].[C-]#[O+].[Cr],T/C,[4],94 % of control
same,T/C,[5],100 % of control
same,T/C,[6],92 % of control
